## Library screen at single concentrations

Chains of the proteins cited; added tags and fusions are not shown.
UniProt P9WFT3, whole entry: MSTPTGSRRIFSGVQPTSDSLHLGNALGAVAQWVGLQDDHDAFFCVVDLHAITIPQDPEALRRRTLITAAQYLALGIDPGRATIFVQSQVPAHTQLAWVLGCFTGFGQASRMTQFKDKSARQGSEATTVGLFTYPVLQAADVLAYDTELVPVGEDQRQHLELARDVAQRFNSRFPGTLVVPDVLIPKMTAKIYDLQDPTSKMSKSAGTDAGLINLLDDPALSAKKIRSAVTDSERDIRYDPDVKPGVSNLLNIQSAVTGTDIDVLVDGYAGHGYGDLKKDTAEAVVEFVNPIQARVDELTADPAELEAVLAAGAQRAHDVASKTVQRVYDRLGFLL
UniProt P9WNZ1, whole entry: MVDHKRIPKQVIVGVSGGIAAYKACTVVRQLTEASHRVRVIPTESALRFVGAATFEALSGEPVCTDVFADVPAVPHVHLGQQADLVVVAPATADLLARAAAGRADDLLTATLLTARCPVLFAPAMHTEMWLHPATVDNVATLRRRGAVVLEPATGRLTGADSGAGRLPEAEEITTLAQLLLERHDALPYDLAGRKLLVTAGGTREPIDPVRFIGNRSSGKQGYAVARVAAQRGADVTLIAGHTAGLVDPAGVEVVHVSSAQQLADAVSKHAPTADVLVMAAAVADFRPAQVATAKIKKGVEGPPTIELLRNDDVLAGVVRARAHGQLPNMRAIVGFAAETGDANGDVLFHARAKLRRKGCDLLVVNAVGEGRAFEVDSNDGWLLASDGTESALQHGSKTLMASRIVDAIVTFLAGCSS

Leishmania in macrophages: 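Cell assay of Leishmania donovani living inside macrophages; the read-out is not stated. Concentration: 30 µM. The record gives no direction; compounds that gave an IC50 in retests scored well above the rest, so higher reads as stronger inhibition. Of about 69,000 compounds tested this way, about 1,000 (1.5%) reached 50% or more in at least one test.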
MtTrpRS: 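Enzyme assay of tryptophanyl-tRNA synthetase; the read-out is not stated. Target: Tryptophan-tRNA ligase, Mycobacterium tuberculosis (UniProt P9WFT3). Compounds at 10 µM. Direction is not recorded; retested compounds ran higher, which suggests that high means inhibition. Size under these conditions: about 65,000 compounds, about 64 of them at 50% or above in at least one test.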
Toxoplasma: 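Assay of Toxoplasma gondii numbers, read through their beta-galactosidase reporter with a colour substrate. Tested at 10 µM. Higher reads as fewer parasites (inferred from which compounds were picked for retests). Size under these conditions: about 67,000 compounds, about 260 of them at 50% or above in at least one test.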
CoaBC: 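Coenzyme A biosynthesis protein CoaBC, Mycobacterium tuberculosis (UniProt P9WNZ1). Enzyme assay of CoaBC with a phosphate dye (Biomol Green) read at 650 nm. Compounds at 30 µM. Direction is inferred from only a few compounds that gave an IC50; most scored high, so higher reads as stronger inhibition. Most strong results did not repeat in a second test. Of about 67,000 compounds tested this way, about 40 (0.06%) reached 50% or more in at least one test.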

The filed quantity is “Percent Effect” (%).
The record does not define 0% and 100%; most values in the screen are far below 50% and negative numbers occur (in some assays of this library far below -100).
This is an unselected part of the compounds tested.
Two or more numbers in one place are separate tests of the same structure; such repeats can differ widely.
A dash means the value is not listed here; it may have been measured.

| # | structure | Leishmania in macrophages | MtTrpRS | Toxoplasma | CoaBC |
|---|---|---|---|---|---|
| 1 | `CC(C)n1cc(CN2CCCN(C(=O)c3nccnc3N)CC2)cn1` | 1.064% | 0.7505% | -12.55% | 4.348% |
| 2 | `CCn1c(Nc2ccccc2OC)nc2c(C)nn(C)c2c1=O` | -16.24% | -4.422% | -60.37% | 7.133% |
| 3 | `Cn1ccnc1CN1CCCN(C(=O)c2ccc3ccccc3c2)CC1` | -1.667% | -0.9538% | -1.754% | 9.323% |
| 4 | `CC(C)CN1CCC2(CCN(CC3CC3)CC2)C1=O` | - | 0.4933% | - | 3.171% |
| 5 | `CNC(=O)c1cccnc1NCc1ccc(-n2cccn2)cc1` | -8.033% | -6.826% | 8.599% | -0.6135% |
| 6 | `c1ccc(N2CCCC(c3nc(-c4cccnn4)no3)C2)nc1` (stereo not shown) | 2.027% | 2.477% | 2.968% | - |
| 7 | `CCCNC(=O)c1cc(OC)c(OC)cc1N(C)S(C)(=O)=O` | 25.46% | -5.644% | -1.521% | -4.099% |
| 8 | `COCCCC(=O)Nc1[nH]nc(-c2ccncc2)c1C` | -4.014% | -2.437% | 1.357% | -3.241% |
| 9 | `Cc1cc(C(F)(F)F)nn1C(C)C(=O)NN1CCOCC1` (stereo not shown) | 5.812% | -1.22% | 15.59% | 17.92% |
| 10 | `CN(C)C(=O)Cn1c(C2CC2)c(CN2CCSCC2)c2cccnc21` | -5.236% | -3.618% | -1.972% | -7.485% |
| 11 | `Cc1sc2nc(CCN)nc(N3CCC(N4CCCC4)CC3)c2c1C` | 27.1% | -0.9839% | -0.5671% | -18% |
| 12 | `CC(C)c1ccn(C2(C(=O)O)CCN(c3cc(C(N)=O)ccn3)CC2)n1` | 27.11% | 5.512% | 16.05% | 1.023% |
| 13 | `Cc1ccc2[nH]nc(C(=O)NCC3CCN(Cc4c[nH]cn4)C3)c2c1` (stereo not shown) | 23.85% | 1.887% | -5.775% | -42.44% |
| 14 | `Cc1cnc(N2CCc3ncnc(N4CCN(C)CC4)c3CC2)nc1.O=C(O)C(F)(F)F` | 10.42% | - | -2.916% | - |
| 15 | `Cn1ccc2c(C(=O)NCCCN3CCCC3)cccc21` | 16.97% | -3.774% | -12.11% | -26.89% |
| 16 | `CC(=O)N1CCN(c2nc(C(F)(F)F)nc3sc(C)c(C)c23)CC1` | 12.56% | -5.636% | -12.91% | 1.449% |
| 17 | `O=C1COC2(CCN(C(=O)c3ccoc3)CC2)CN1Cc1ccccn1` | - | -2.429% | - | -5.308% |
| 18 | `Cl.NC(=O)COc1ccc(CNCc2ccc(F)c(F)c2)cc1` | 15.1% | - | -2.675% | - |
| 19 | `CN(CCc1ncnn1C1Cc2ccccc2C1)C1CCS(=O)(=O)C1` (stereo not shown) | -53.47% | 3.06% | 0.1354% | 8.156% |
| 20 | `COCCNCc1cc2ccc(C)c(C)c2[nH]c1=O` | 19.15% | -3.125% | 5.878% | 0.4785% |
| 21 | `N#Cc1cccnc1NCc1cccnc1N1CCCCC1` | -5.363% | 1.089% | -35.97% | 6.083% |
| 22 | `Cn1cc(CN2CCC3(CCC(C(=O)NCC4CC4)C3)CC2)cn1` (stereo not shown) | - | -2.525% | - | -10.39% |
| 23 | `Cc1noc(C(C)N2CCN(CCCN3CCCC3=O)CC2)n1` (stereo not shown) | 11.76% | 0.2347% | 3.848% | 5.575% |
| 24 | `CN(C)CCO[C@@H]1CC[C@H]2[C@H]1OCCN2C(=O)c1ccccc1F` | - | -7.713% | - | 3.951% |
| 25 | `Cc1cccc(CN2C(=O)CCC23CCN(c2ncc(F)cn2)CC3)n1.O=C(O)C(F)(F)F` | 16.32% | - | 5.174% | - |
| 26 | `CCCOc1ccc2c(c1)OCC(C(=O)NC(C)Cn1cccn1)=C2` (stereo not shown) | 20.7% | -6.286% | -2.899% | 12.81% |
| 27 | `CC(C)(C)c1cc(C(=O)NCCN2CCCS2(=O)=O)[nH]n1` | 22.67% | -3.952% | 1.505% | 1.535% |
| 28 | `CC(C)c1sc(Br)nc1C(=O)NCc1ccncc1` | -1.023% | 5.432% | 11.21% | 1.381% |
| 29 | `COCCN1CCN(CC(=O)N(C)Cc2cccc(F)c2)CC1C` (stereo not shown) | 9.297% | -3.273% | -6.714% | -0.2415% |
| 30 | `CC(c1ncc(-c2ccccc2)o1)N1CCN(C(=O)C(C)(C)C)CC1` (stereo not shown) | -46.32% | -3.826% | 8.98% | 5.646% |
| 31 | `N#CCc1ccc(NC(=O)Cn2cc(I)cn2)cc1` | 34.11% & 0.1933% | 3.067% | 8.766% | 3.797% |
| 32 | `Cc1ncccc1C(=O)Nc1cccc(Cn2ccccc2=O)c1` | 13.02% | 2.12% | 3.48% | 2.265% |
| 33 | `O=C(O)c1ccccc1-n1cnc(CN2CCCCCC2)c1` | -5.236% | -7.525% | 10.7% | 0.8589% |
| 34 | `O=C1[C@@H]2CCN(C3CCOCC3)C[C@@H]2OCCN1Cc1cccnc1` | - | -6.337% | - | 3.807% |
| 35 | `c1ccc(-c2nc(CNCCn3cccn3)cs2)cc1` | -14% | -23.58% | 4.826% | 10.32% |
| 36 | `CC/C=C(/C)C(=O)NCCc1csc(N2CCCC2)n1` | 24.16% | 2.824% | -0.6977% | 9.917% |
| 37 | `CN1CCN(C(=O)Cc2ccc(F)cc2)Cc2cccnc21.O=C(O)C(F)(F)F` | -4.08% | - | -3.315% | - |

Once more, the final 3:

- c1ccc(-c2nc(CNCCn3cccn3)cs2)cc1 | Leishmania in macrophages: -14%; MtTrpRS: -23.58%; Toxoplasma: 4.826%; CoaBC: 10.32%
- CC/C=C(/C)C(=O)NCCc1csc(N2CCCC2)n1 | Leishmania in macrophages: 24.16%; MtTrpRS: 2.824%; Toxoplasma: -0.6977%; CoaBC: 9.917%
- CN1CCN(C(=O)Cc2ccc(F)cc2)Cc2cccnc21.O=C(O)C(F)(F)F | Leishmania in macrophages: -4.08%; Toxoplasma: -3.315%

From ChEMBL document CHEMBL3988442, “University of Dundee, Small-Polar-MMV Screening Library” (2021).